Data reported in PMC3105080.
Results are given in words; binding and its absence hold for the method and conditions named. In cells and extracts the contact can be indirect. Some entries that bind do so weakly or less than the wild type. Sequences can lack the tags named with a protein.

By UniProt entry, the sequences of proteins in these tests, tags left out. Residues count along the entry.
UniProt Q4ZJM7, residues 24-482: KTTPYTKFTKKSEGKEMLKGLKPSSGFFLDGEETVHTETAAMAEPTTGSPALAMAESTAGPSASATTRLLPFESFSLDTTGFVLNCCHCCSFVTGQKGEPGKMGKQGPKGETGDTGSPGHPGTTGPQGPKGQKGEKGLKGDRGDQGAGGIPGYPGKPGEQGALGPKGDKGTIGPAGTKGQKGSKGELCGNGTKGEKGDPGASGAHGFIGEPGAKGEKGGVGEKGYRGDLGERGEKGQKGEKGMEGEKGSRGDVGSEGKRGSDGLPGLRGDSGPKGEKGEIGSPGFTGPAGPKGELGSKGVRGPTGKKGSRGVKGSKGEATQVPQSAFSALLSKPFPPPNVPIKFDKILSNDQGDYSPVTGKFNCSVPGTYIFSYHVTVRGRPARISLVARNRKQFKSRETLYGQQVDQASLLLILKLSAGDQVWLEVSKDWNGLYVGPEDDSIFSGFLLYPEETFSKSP

Biological target: T1, otoconin-90 (Oc90), full-length, FLAG-tagged (mouse) (UniProt Q9Z0L3)
T1 sequence: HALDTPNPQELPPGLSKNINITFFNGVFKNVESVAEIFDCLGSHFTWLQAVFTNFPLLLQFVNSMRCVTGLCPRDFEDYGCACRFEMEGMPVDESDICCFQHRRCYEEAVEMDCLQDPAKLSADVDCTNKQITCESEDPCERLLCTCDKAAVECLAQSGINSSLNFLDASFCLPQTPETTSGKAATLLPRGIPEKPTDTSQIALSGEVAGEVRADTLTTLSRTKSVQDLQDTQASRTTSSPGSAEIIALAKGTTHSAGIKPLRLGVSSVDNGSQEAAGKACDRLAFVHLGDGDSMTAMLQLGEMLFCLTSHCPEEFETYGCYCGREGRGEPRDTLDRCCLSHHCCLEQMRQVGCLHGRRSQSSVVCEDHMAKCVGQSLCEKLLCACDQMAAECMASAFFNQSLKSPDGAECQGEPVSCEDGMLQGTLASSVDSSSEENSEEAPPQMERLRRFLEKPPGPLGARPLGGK
Test: co-IP; HEK293 cells co-transfected with Oc90-FLAG and otolin or its domains; lysed in hypotonic buffer (10 mM Tris-HCl pH 7.5, 10 mM NaCl, 2 mM EDTA, 0.5% Triton-X-100), then 150 mM NaCl; anti-FLAG M2 beads 6 h at 4°C, washed 3 times with TBS; Western blot with otolin and Oc90 antibodies

Question: “otolin-1 (otolin), full-length (from UniProt Q4ZJM7 24-482)” was tested. Which binding did it give?
Answer: binds
